For one molecule, binding results are on record in article PMC3317945.

Chains of the proteins cited; added tags and fusions are not shown. Residues count along the entry.
UniProt P37231, residues 201-503: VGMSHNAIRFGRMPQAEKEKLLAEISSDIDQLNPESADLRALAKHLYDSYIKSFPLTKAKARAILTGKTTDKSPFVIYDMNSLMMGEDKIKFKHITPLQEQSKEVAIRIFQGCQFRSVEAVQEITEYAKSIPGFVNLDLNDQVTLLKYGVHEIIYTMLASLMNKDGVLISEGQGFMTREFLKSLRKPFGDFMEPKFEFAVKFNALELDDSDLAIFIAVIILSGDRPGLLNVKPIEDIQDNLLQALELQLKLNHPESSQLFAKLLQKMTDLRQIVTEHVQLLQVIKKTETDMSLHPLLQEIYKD

No constants are given. Whether binding was seen depends on the method and setting. Some entries that bind do so weakly or less than the wild type.

Test [1] deals with PPARγ-LBD (amino acids 173–475) (UniProt P37231). Briefly: condition: only without the agonist (GW949); 1 µM PPARγ-LBD, 10 nM DRIP2; fluorescence polarisation; without agonist; 10 nM Texas-Red DRIP2, 1 µM PPARγ-LBD; 20 mM TRIS pH 7.5, 100 mM NaCl, 0.01% NP-40, 2% DMSO; MT19c dilution series; equilibrated two hours; 384 well plate; both purified. For orientation: In fluorescence polarisation assays a small probe gives low polarisation when free and higher when bound to something large.

Test [2] shares this target. Briefly: fluorescence polarisation; with agonist (rosiglitazone 5 µM in the methods; GW929 in the legend, GW949 in the results); 10 nM Texas-Red DRIP2, 1 µM PPARγ-LBD; 20 mM TRIS pH 7.5, 100 mM NaCl, 0.01% NP-40, 2% DMSO; MT19c dilution series; equilibrated two hours; 384 well plate; both purified.

B1: DRIP2 (…) labeled with Texas-Red maleimide (peptide)
peptide: CNTKNHPMLMNLLKDNPAQD
modifications: labeled with Texas-Red maleimide
For B1, the binding result in test [1] is listed as “no binding”; in test [2] it was “binds”.
